In experiment [1] the target is T1, 5-FAM-MCPH1_(407-424) peptide (UniProt Q8NEM0).
T1 sequence (peptide, 5-FAM label): CGESSYDDYFSPDNLKER
Description: fluorescence polarisation.

Protein sequences, listed by entry. Tags and fused reporters are not part of them. Lines headed by an entry give the natural chain unless they say otherwise; changes in a name come on top.
UniProt Q8NEM0: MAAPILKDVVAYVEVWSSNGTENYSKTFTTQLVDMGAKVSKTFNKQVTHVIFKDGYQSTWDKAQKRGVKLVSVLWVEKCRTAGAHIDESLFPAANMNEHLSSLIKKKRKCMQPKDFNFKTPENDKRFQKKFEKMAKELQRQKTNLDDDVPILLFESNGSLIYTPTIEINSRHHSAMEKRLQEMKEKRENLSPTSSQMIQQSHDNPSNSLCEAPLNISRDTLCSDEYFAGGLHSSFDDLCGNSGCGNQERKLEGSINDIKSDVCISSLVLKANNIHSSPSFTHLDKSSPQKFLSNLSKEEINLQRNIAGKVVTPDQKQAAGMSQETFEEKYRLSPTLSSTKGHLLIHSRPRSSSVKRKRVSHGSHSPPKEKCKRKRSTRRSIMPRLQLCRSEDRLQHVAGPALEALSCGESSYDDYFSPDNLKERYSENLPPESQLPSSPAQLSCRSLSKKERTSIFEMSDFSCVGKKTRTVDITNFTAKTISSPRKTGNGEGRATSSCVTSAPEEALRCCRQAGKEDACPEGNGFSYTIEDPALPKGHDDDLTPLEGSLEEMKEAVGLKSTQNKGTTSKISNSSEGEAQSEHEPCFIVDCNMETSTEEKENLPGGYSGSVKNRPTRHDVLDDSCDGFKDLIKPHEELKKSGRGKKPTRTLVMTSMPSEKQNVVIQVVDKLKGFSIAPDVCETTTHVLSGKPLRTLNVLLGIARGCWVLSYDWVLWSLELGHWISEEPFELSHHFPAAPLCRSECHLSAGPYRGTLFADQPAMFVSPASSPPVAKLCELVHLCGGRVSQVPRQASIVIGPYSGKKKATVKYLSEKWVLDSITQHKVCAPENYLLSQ
UniProt O95347: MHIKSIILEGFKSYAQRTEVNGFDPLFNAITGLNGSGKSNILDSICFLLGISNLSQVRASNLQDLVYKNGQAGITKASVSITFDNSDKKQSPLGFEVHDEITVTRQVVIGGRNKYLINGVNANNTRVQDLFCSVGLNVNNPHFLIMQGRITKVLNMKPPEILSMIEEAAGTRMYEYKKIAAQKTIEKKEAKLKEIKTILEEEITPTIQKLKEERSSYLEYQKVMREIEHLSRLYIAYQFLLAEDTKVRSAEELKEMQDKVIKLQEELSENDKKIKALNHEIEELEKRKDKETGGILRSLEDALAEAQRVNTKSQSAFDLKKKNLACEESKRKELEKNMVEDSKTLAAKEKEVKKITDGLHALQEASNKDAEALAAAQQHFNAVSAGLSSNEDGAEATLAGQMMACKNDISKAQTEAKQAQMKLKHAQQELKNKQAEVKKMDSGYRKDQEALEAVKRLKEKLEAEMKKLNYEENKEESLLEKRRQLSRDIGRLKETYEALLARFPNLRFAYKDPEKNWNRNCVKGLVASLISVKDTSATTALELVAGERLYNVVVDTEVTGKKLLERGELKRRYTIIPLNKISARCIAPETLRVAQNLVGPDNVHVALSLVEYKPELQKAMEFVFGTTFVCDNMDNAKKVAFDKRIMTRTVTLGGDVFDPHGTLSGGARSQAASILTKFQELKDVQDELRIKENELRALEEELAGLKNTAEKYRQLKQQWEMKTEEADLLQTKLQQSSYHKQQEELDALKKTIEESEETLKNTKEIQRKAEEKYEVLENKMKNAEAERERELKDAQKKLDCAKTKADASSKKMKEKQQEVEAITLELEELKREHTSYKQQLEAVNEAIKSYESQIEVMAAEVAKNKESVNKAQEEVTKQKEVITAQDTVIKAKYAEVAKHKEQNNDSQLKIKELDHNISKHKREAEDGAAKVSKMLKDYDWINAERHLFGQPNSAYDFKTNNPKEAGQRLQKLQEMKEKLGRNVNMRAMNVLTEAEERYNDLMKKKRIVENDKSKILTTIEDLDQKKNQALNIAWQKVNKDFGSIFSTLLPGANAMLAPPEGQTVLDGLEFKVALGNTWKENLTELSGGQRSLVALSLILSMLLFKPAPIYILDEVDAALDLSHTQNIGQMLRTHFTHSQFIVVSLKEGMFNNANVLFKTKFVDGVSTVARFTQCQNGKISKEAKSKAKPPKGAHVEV
UniProt Q9NTJ3: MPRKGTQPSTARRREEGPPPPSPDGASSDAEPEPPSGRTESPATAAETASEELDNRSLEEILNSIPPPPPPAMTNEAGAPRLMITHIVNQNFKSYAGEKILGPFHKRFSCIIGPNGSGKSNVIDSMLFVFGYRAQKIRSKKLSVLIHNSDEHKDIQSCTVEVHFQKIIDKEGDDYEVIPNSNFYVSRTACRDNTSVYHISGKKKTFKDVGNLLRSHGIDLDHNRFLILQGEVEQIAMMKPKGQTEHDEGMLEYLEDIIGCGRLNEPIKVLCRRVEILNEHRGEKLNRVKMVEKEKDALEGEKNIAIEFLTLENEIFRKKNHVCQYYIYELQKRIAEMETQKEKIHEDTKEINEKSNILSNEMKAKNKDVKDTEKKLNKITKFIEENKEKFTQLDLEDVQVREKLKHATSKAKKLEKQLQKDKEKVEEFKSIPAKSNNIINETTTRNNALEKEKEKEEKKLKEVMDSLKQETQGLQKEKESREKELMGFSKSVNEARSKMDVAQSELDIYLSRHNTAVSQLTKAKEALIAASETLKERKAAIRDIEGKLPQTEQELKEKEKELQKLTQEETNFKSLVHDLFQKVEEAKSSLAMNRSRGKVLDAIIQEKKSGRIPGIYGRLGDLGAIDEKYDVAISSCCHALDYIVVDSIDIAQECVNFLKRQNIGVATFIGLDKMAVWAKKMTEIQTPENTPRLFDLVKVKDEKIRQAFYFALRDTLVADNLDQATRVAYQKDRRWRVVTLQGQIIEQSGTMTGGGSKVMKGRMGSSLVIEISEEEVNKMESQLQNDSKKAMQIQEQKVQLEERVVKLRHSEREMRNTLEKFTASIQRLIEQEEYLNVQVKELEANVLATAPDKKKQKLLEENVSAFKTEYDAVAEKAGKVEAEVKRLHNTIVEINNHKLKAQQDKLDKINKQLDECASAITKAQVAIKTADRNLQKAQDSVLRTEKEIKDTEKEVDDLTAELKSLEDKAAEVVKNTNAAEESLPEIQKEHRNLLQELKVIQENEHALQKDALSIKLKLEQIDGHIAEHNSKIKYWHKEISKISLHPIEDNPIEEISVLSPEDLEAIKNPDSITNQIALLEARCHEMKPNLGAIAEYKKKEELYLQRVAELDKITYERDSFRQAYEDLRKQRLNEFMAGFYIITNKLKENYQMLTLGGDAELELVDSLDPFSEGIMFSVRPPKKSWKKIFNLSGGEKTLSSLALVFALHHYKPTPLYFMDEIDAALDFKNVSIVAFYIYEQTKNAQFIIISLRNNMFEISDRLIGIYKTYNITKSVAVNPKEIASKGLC
UniProt Q6IBW4: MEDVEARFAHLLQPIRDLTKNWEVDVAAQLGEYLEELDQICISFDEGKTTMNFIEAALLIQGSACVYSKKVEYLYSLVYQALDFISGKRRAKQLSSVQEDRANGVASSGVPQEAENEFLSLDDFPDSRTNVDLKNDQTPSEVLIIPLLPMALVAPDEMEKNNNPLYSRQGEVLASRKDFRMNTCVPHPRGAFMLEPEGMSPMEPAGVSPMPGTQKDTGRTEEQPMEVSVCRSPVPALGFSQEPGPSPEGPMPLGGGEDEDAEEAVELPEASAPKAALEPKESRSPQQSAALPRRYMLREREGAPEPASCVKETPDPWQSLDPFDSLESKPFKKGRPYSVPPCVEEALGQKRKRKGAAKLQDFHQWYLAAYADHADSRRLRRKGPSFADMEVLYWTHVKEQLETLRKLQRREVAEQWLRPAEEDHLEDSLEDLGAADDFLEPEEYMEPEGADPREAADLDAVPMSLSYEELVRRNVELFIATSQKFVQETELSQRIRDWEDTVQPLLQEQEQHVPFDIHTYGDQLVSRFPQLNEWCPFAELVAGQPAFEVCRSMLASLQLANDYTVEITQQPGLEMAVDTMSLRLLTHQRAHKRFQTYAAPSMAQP
UniProt P42695: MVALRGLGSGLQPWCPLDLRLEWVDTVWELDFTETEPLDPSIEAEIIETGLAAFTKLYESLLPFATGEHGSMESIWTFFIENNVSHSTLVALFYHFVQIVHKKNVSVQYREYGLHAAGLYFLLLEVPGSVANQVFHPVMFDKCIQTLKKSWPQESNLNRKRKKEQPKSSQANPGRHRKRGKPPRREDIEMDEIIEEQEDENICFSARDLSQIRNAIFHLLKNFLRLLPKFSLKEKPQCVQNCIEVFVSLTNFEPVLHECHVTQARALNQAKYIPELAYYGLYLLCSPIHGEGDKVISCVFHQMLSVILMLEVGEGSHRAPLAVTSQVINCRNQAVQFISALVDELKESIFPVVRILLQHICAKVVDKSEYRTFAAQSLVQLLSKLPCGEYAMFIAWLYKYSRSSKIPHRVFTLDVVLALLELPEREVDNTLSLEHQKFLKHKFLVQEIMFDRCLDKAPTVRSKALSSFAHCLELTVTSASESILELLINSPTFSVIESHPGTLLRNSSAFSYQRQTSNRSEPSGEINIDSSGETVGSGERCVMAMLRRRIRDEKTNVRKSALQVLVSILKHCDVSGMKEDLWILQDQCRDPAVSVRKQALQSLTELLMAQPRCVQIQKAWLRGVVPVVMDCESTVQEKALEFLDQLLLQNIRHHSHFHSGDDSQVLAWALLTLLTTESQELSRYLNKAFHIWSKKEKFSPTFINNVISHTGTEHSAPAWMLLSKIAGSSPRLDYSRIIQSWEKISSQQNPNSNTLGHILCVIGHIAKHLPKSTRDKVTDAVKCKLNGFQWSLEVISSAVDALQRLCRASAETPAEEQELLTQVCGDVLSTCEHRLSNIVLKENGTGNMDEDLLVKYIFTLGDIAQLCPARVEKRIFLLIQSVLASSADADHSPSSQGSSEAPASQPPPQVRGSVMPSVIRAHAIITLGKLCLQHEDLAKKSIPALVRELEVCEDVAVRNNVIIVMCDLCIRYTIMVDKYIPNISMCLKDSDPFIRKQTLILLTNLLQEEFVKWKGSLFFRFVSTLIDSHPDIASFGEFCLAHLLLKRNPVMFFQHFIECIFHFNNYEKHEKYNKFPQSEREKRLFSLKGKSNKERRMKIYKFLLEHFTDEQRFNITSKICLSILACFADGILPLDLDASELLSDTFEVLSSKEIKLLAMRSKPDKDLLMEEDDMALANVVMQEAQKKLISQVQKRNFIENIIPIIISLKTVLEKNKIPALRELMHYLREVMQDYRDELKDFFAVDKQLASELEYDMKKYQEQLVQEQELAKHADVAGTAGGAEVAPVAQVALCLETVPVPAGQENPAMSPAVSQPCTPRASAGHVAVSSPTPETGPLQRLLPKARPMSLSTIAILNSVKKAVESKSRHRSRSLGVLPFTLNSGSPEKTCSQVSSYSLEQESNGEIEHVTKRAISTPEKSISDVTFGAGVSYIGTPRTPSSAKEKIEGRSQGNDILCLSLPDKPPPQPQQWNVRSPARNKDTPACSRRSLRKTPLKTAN
UniProt Q86XI2: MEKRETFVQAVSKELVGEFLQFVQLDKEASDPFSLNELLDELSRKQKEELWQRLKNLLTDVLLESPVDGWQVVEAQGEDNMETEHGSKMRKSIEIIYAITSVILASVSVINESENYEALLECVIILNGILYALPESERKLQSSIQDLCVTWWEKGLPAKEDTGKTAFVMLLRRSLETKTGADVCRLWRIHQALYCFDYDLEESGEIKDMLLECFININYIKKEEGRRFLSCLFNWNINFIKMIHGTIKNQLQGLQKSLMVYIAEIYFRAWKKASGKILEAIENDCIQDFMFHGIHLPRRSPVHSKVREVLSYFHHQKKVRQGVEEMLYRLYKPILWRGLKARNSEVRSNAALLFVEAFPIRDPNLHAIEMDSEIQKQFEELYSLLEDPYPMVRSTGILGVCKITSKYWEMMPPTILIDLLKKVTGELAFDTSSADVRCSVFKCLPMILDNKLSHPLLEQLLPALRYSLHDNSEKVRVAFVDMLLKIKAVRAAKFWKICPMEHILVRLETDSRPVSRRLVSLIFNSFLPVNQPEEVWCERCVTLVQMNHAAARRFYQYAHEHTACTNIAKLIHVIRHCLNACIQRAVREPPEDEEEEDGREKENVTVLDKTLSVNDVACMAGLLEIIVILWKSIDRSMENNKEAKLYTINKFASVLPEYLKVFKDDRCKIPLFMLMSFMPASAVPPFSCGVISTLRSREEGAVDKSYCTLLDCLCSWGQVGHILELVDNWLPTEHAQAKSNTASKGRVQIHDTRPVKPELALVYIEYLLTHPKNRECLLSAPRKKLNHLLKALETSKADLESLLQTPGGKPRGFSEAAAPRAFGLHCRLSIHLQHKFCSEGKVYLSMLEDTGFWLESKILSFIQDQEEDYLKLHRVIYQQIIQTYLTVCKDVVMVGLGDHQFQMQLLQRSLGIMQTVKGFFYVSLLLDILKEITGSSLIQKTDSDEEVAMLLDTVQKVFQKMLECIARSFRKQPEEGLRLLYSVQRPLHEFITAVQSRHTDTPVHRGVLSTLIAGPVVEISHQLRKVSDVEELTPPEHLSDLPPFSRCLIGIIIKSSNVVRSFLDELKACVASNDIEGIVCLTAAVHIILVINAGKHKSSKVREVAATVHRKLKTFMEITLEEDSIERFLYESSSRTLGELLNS

Experiment [2] deals with T1, 5-FAM-MCPH1_(407-424) peptide. The experiment is described as follows: fluorescence polarisation. The source holds these as a separate data set.

Like-named read-outs stand apart in the source and are kept apart here. No constants are given. Whether binding was seen depends on the method and setting. Some binding calls cover weakened binding; strength is not graded here.

Take “condensin II pentamer (recombinant, human) (from UniProt O95347;Q9NTJ3;Q6IBW4;P42695;Q86XI2) (complex)”: the binding result in experiment [1] and in experiment [2] was “binds” each time.

The values are drawn from paper doi:10.1101/2024.05.02.592151 (bioRxiv, 2024).
